# About 620 (0.19%) of roughly 320,000 compounds were called active. The shares of active, inactive and inconclusive entries below differ from those in the screen. Rule as the data show it: active = activation above about 80%; inconclusive = between about 30% and that limit; inactive = weaker than that.
# Chains of the proteins cited; added tags and fusions are not shown.
# UniProt Q8NER1, whole entry, looked up: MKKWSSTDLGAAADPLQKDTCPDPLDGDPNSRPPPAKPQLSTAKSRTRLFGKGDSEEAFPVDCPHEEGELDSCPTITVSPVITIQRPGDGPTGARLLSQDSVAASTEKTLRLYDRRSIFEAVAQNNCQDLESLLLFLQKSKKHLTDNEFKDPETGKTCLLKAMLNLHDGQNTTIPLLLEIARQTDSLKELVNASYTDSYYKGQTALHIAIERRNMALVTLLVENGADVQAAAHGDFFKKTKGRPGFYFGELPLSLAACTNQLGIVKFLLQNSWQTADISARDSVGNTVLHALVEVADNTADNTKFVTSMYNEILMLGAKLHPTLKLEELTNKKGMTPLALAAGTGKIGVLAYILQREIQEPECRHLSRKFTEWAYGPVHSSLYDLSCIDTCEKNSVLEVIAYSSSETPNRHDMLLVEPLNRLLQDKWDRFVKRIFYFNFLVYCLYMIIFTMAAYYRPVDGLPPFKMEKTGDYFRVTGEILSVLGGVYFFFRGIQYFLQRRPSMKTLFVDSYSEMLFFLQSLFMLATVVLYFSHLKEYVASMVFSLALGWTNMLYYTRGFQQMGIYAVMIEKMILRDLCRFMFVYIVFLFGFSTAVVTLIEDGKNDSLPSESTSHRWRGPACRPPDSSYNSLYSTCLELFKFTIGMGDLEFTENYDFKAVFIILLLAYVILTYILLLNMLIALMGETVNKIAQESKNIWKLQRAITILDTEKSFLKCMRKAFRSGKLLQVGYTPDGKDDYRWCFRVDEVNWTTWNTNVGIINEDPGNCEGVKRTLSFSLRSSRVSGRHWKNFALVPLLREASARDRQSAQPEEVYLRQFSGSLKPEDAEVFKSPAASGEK
# Target: Transient receptor potential cation channel subfamily V member 1 (Homo sapiens) (UniProt Q8NER1)
# Assay: HTS Assay for Compounds that Act as Agonists of the Vanilloid Receptor 1; also: 0% is about no effect
# Conditions: TRPV1-expressing cells, Fluo-8 calcium influx, agonist mode; at 8.33 µM, hits give high values
# Summary of the method: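 Cells expressing TRPV1 were dye-loaded with Fluo-8 and read kinetically: 10 s baseline, 3 min after compound (agonist portion), then 2 min after EC20 capsaicin (allosteric enhancer portion). Calcium-bound dye fluorescence at 480/520 nm.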
row,Compound,activation
1,CCN(CC)CC(O)Cn1c(-c2ccccc2Cl)nc2ccccc21 (stereo not given),inactive: -1.33%
2,O=C(NCCc1nc2ccccc2n1Cc1ccccc1F)c1ccc(F)cc1,inconclusive: 72.7%
3,O=C(CNC(=S)N(Cc1ccc(F)cc1)C1CCCCC1)NCC1CCCO1 (stereo not given),inconclusive: 39.8%
4,Cc1cccn2c(=O)c3cc(C(=O)NC4CCCC4)c(=N)n(Cc4ccc(F)cc4)c3nc12,inconclusive: 67%
5,Cc1ccc(OC(C)C(=O)Nc2ccncc2)cc1C (stereo not given),inconclusive: 32.3%
6,COc1ccc(-c2nn(-c3ccccc3)cc2/C=N/n2cnnc2)cc1OC,inactive: -14.9%
7,CCN(CC)c1ccc(/C=c2\sc3nc4ccccc4n3c2=O)c(O)c1,inconclusive: 39.4%
8,CCCn1nc(NC(=O)C2CCCO2)c2cc3cc(C)ccc3nc21 (stereo not given),inconclusive: 41.2%
9,Cc1ccc(SCc2c(C(=O)N/N=C/c3cccnc3)nnn2-c2nonc2N)cc1,inconclusive: 68%
10,COc1ccc(CCNC(=S)N2CCC(C(N)=O)CC2)cc1,inconclusive: 61.4%
11,CCOc1nc2c(c(-c3cccs3)c1C#N)Cc1ccccc1-2,inactive: -0.768%
12,CC(C)Sc1nc(N2CCCC2)c2c(c1C#N)CC(C)(C)OC2,inconclusive: 37.7%
13,O=C(COC(=O)c1c2c(nc3ccccc13)CCCCC2)c1ccc(Cl)s1,inconclusive: 41.4%
14,Cc1ccc2cc3c(NC(=O)c4ccco4)nn(C)c3nc2c1,inconclusive: 36.7%
15,Cc1ccc(C2(c3noc(CN4CCC(C(=O)N5CCOCC5)CC4)n3)CCCC2)cc1,inconclusive: 70.7%
16,O=C(Nc1nnc(-c2ccccn2)o1)c1cccc(Cl)c1,inactive: -0.988%
17,CN(C)c1ccc(C(=S)Nc2ccccc2)cc1,inconclusive: 39.2%
18,CCOc1ccccc1CN1CCNC(=O)C1CC(=O)NCc1ccccn1 (stereo not given),inactive: 1.44%
19,Cc1cc(C)c2c3c(sc2n1)C1(CCSCC1)C(C#N)=C(N)O3,inconclusive: 37.6%
20,CC(C)(C)c1ccc(/C=C/C(=O)NCCCn2ccnc2)cc1,inconclusive: 66.1%
21,CCCCNc1c(-c2cccc(-c3ccc(OC)cc3)c2)nc2ccc(C)cn12,inconclusive: 59.3%
22,COc1ccc(Cc2noc(CN3CCN(Cc4cccc(Cl)c4)CC3)n2)cc1OC,inconclusive: 57.2%
23,Cc1ccc(CCNC(=O)C2CC(=O)N(C3CCCCC3)C2)cc1 (stereo not given),inactive: -0.719%
24,CSc1nc2[nH]c3c(c2c2nnnn12)CCCC3,inconclusive: 50.2%
25,Cc1cccc(NC(=O)c2ccc(C(=O)c3ccccc3)cc2)n1,inconclusive: 30.2%
26,COc1ccccc1C(=O)NC(CCSC)C(=O)N1CCC(Cc2ccccc2)CC1 (stereo not given),inconclusive: 47.6%
27,C/C(=N\NC(=O)C1CC1)c1ccc(C(C)(C)C)cc1,inconclusive: 37.1%
28,O=C(COC(=O)C1CC2C=CC1C2)Nc1cccc(S(=O)(=O)N2CCOCC2)c1 (stereo not given),inconclusive: 60.8%

# Laid out differently: entries from further up.
row | Compound | activation
25 | Cc1cccc(NC(=O)c2ccc(C(=O)c3ccccc3)cc2)n1 | inconclusive: 30.2%
26 | COc1ccccc1C(=O)NC(CCSC)C(=O)N1CCC(Cc2ccccc2)CC1 (stereo not given) | inconclusive: 47.6%

# (list continues)

row,Compound,activation
1,O=C1CC2(CCN(C(=O)COc3ccccc3)CC2)Oc2ccccc21,inconclusive: 37.3%
2,CCOC(=O)c1c(C)nc2c(c1C)c(=O)oc1ccccc12,inconclusive: 40.9%
3,CCc1ccc(NC(=O)C2CCN(c3c(N4CCCC4)c(=O)c3=O)CC2)cc1,inactive: 0.258%
4,CN(C)CCCN=c1cc(-c2ccccc2)oc2ccc(Cl)cc12,inactive: 18.8%
5,Cc1c(C(=O)N/N=C/c2ccccc2)[nH]c2ccc(Cl)cc12,inconclusive: 43.2%
6,Cc1c(/C=N\NC(=O)c2ccc([N+](=O)[O-])cc2)cnn1C,inactive: 18.2%
7,COc1c(Br)cc(Br)cc1/C=N/NC(=O)c1ccncc1,inconclusive: 40.7%
8,O=C(Nc1cccc(F)c1)C1CCN(C(=O)c2ccc(Br)cc2)CC1,inconclusive: 34.4%
9,CC(=O)N/C(=C\c1ccccc1)C(=O)OCC(=O)N(CC(C)C)c1c(N)n(Cc2ccccc2)c(=O)[nH]c1=O,inactive: 3.3%
10,O=C(c1cc2cc(Br)cc(Br)c2oc1=O)N1CCOCC1,active: 87.7%
11,COC(=O)c1sc2ccccc2c1-n1cccc1C(=O)C(=O)Nc1ccc(F)cc1,inconclusive: 35.7%
12,CCOc1cc(NC(=O)c2ccco2)c(OCC)cc1NC(=O)Cc1ccc(OC)c(OC)c1,inconclusive: 39.2%
13,COc1cccc(CN(C)C(=O)C2CC(=O)N(c3ccc4c(c3)OCCO4)C2)c1 (stereo not given),inactive: 1.31%
14,Cc1ccc(C(=O)Nc2cc3[nH]c(=O)oc3cc2C)cc1,inconclusive: 61.3%
15,CC(C)c1ccc(NC2CCCN(C(=O)c3cccc4nccnc34)C2)cc1 (stereo not given),active: 84.6%
16,Cc1ccc2nc(-c3ccc(NS(C)(=O)=O)cc3)cc(-c3ccccc3)c2c1,inactive: -2.49%
17,Cc1ccc(Cn2c(=N)c(C(=O)NCC3CCCO3)cc3c(=O)n4ccccc4nc32)cc1 (stereo not given),inconclusive: 56.9%
18,CN(C)c1ccc(/C=C(\C#N)C(=O)OCC(=O)N(C)C2CCS(=O)(=O)C2)cc1 (stereo not given),inactive: 10.3%
19,Cc1ccc(Cl)c(NC(=S)N(CCCN2CCOCC2)Cc2ccco2)c1,inactive: -0.319%
20,CCc1ccccc1N(C)S(=O)(=O)c1cc(-c2cc(C)no2)ccc1OC,inconclusive: 39.3%
21,COC(=O)[C@]1(CC(C)C)N[C@H](c2ccc(SC3CCCCC3)c(OC)c2)[C@@H]2C(=O)N(C)C(=O)[C@@H]21,inconclusive: 31.2%
22,CCN(CC)S(=O)(=O)c1ccc(N2CCCC2)c(NC(=O)c2ccccc2OC)c1,inconclusive: 40.6%
23,O=C(CCCN1C(=O)/C(=C/c2ccco2)SC1=S)Nc1ccccc1C(=O)O,inactive: -3.36%
24,O=S(=O)([N-]c1nc2ccccc2nc1-n1cc[n+](Cc2ccccc2)c1)c1ccc(Cl)cc1,inactive: 2.33%
25,Cc1cccc(N2CCN(C(=O)/C=C/c3cccs3)CC2)c1C,inactive: -5.22%
26,Cc1ccsc1C(=O)N1CCCC(CCC(=O)NCc2ccc(F)c(F)c2)C1 (stereo not given),inconclusive: 36.2%
27,NC(=O)CCCn1c(C(=O)c2ccc(Cl)cc2)c2ccc(C(F)(F)F)cc2[n+]1[O-],inconclusive: 30.8%

# Copied from the list:
# Under activation, `CCOc1cc(NC(=O)c2ccco2)c(OCC)cc1NC(=O)Cc1ccc(OC)c(OC)c1` has the entry inconclusive: 39.2%
# Under activation, `Cc1ccc2nc(-c3ccc(NS(C)(=O)=O)cc3)cc(-c3ccccc3)c2c1` has the entry inactive: -2.49%

# Source: PubChem BioAssay AID540275 (National Center for Advancing Translational Sciences (NCATS), 2011)
